Measured values reported in patent US20220195021A1 (ANWITA BIOSCIENCES, published 2022).
Numbering of substitutions follows the chain as printed. These are yes or no findings as the source states them, for the method shown. Some entries that bind do so weakly or less than the wild type. Where a sequence is shown, tags or fusion partners need not be part of it. One block for each binder: values may come before it.

The chains behind the UniProt entries cited, without tags or fusion partners. Residues count along the entry.
UniProt A2V9Z4, residues 25-608: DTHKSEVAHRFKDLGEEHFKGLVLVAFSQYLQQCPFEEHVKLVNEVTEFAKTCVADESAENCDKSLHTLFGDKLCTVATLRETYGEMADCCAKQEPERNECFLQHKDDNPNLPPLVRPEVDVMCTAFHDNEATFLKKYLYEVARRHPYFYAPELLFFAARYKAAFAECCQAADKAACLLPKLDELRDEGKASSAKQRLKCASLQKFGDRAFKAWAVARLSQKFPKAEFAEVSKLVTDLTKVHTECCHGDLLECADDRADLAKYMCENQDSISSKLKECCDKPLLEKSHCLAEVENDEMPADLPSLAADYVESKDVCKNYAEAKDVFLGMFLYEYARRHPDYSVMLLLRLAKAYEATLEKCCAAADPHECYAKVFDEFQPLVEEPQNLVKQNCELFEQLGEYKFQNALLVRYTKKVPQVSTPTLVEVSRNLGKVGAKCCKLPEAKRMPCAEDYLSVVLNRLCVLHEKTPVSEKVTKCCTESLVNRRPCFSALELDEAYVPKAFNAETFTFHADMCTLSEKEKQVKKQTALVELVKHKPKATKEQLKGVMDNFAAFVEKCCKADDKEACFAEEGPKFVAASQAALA
UniProt P02768, residues 25-609: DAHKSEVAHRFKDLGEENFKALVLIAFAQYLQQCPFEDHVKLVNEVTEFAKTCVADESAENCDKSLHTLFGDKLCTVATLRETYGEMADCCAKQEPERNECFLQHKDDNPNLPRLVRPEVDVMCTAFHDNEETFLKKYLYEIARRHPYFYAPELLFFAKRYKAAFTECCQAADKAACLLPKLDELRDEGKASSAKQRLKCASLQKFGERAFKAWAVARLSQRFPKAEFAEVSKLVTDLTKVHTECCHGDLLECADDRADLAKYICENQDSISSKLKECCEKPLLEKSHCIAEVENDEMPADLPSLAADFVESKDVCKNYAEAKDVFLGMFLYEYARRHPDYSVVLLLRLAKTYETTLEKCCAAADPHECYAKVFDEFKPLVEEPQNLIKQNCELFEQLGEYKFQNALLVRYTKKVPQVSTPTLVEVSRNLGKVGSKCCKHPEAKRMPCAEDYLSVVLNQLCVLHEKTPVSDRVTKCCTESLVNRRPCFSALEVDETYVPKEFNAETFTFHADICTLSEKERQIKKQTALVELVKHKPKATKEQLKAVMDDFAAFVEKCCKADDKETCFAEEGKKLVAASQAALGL
UniProt P07724, residues 25-608: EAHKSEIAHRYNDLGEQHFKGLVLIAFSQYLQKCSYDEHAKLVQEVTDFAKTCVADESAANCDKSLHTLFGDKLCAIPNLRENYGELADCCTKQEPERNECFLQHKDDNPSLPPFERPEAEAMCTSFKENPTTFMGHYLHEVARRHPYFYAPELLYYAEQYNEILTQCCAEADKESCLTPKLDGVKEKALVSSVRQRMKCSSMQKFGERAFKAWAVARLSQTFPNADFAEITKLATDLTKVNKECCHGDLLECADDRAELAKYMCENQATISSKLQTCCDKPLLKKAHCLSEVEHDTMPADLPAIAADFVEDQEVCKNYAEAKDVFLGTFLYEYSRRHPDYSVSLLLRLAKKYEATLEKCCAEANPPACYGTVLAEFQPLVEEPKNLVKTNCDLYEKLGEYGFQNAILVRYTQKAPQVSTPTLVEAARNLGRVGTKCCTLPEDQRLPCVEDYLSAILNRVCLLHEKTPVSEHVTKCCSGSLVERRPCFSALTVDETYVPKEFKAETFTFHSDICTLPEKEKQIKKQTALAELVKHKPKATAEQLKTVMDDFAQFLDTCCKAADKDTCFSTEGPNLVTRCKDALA

Key:
[1] = target: monkey serum albumin (monkey (cynomolgus monkey in paragraph 472)) (UniProt A2V9Z4); assay: BLI (OCTET RED96), VHH-IgG1-Fc on protein A biosensor, pH 5.5
human serum albumin = target: T1, human serum albumin (human, UniProt P02768 25-609); assay: BLI (OCTET RED96), VHH-IgG1-Fc on protein A biosensor, pH 7.4
T1 construct: The immunogen was rice-expressed HSA (Sigma A9731); also called HSA
Experimental: (§1) The VHH anti-albumin antibodies were evaluated for their ability to interact with human, monkey, and mouse serum albumins at different pH values, e.g., pH 7.4 or pH 5.5 to simulate the pH of an acidified endosome. Briefly, a VHH anti-albumin antibody was fused onto a human IgG1-Fc. The expressed protein was then loaded onto a protein A biosensor (OCTET® RED96). The biosensor was in turn dipped into a solution containing a human, monkey, or mouse serum at three or more different concentrations, e.g., 50, 100, or 200 nM, or 100, 200, or 400 nM. Primary experimental data was analyzed with global fitting to determine a dissociation constant (KD). The results are summarized in Table 7 (pH 5.5) and Table 8 (pH 7.4), wherein A represents a value no greater than 10 nM, B represents a value greater than 10 nM but no greater than 100 nM, and C represents a value greater than 100 nM but no greater than 500 nM.

mouse serum albumin = target: T2, mouse serum albumin (mouse, UniProt P07724 25-608); assay: as above
T2 construct: also called MuSA
Experimental: as §1

[2] = target: monkey serum albumin (monkey (cynomolgus monkey in paragraph 472)) (UniProt A2V9Z4); assay: as above

B2: anti-HSA VHH antibody A8 fused onto a human IgG1-Fc (Fc fusion)
chain: QVQLVESGGGLVQPGGSLRLSCAASGSTWSINTLAWYRQAPGKQRDLVARISSGGSTHYADSVKGRFTVSRDNAENTLVLQMNSLKPEDTAVYYCYAQSTWYPPSWGQGTQVTVSS
notes: Llama VHH; also called Ab A8; not shown: human IgG1 Fc
- binding [1]: binds

B3: humanized anti-HSA VHH antibody A19 fused onto a human IgG1-Fc (Fc fusion)
chain: B2 chain with Q1E, H58Y, V69I, A74S, E75K, V79Y, K86R, P87A, Q111L
notes: also called Ab A19; anti-HSA A19; not shown: human IgG1 Fc
- binding (human serum albumin): binds
- binding (mouse serum albumin): binds
- binding [2]: binds

Second part, the binder after the results:

- binding [1]: binds
B1: anti-HSA VHH antibody A10 fused onto a human IgG1-Fc (Fc fusion)
chain: QVQLVESGGGLVQAGGSLRLSCLASGGTFSSYAMGWFRQAPGKEREFVAAISWKSSTYYTDSVKGRFTISRDNAKNTVYLQMNSLTPEDTAVYYCAADPTGSYDQPWYDYWGQGTQVTVSS
notes: Llama VHH; also called Ab A10; not shown: human IgG1 Fc

- binding [1]: binds
B4: humanized anti-HSA VHH antibody A20 fused onto a human IgG1-Fc (Fc fusion)
chain: QVQLVESGGGVVQPGGSLRLSCAASGFAFRGFGMSWVRQAPGKGLEWVSSINNGGSDTYYADSVKGRFTISRDNSKNTLYLQMNSLRAEDTAVYYCAIGGPGASPSGQGTQVTVSS
notes: also called Ab A20; anti-HSA A20; not shown: human IgG1 Fc
